PubChem BioAssay AID504834 (National Center for Advancing Translational Sciences (NCATS), 2011)
Hit rate of the full screen: of about 320,000 compounds, about 22,000 (6.9%) were called active. The shares of active, inactive and inconclusive entries below differ from those in the screen. The call rests on the fitted dose curve; in most records, active means well fitted inhibition curve with a large enough effect; inconclusive means small, poorly fitted or top-dose-only effect, or another doubt; inactive means no such curve, though single readings can be large or run the other way. A potency beside an inconclusive call is a rough fit, not a confirmed value.

Experiment: Primary qHTS for delayed death inhibitors of the malarial parasite plastid, 96 hour incubation
Settings: P. falciparum luciferase reporter growth; series mostly up to 28.7 µM
Procedure, shortened: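 Compounds incubated with erythrocytes infected by luciferase-expressing P. falciparum (2% hematocrit, 0.05% parasitemia final) for 96 hours, 37 C in 5% CO2. Growth inhibition scored as decreased luciferase luminescence.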
Potency means the concentration at half of the fitted maximal effect.

Row | SMILES | Potency
1 | CC(=O)NC(CC(=O)Nc1nc(-c2ccc(N(C)S(C)(=O)=O)cc2)cs1)c1ccccc1 (configuration not stated) | inconclusive: 11.7 µM [inhibitor, partial curve]
2 | Cc1ccccc1-c1noc(-c2ccccc2F)n1 | inactive
3 | CCOC(=O)CSc1nc(C)c2cccc(C)c2n1 | inactive
4 | CN(CC(=O)NC(=O)NC1CCCCC1)CC(=O)Nc1ccc(OC(F)(F)F)cc1 | inconclusive: 5.22 µM [inhibitor, partial curve]
5 | Cc1cccc(C)c1NC(=O)CN(C)C(=O)C1=COCCO1 | inconclusive: 0.37 µM [inhibitor, partial curve, poor fit]
6 | COc1ccc(NC(=O)/C=C/c2cccc(C(F)(F)F)c2)cn1 | inconclusive: 13.1 µM [inhibitor, single point]
7 | CCn1cc(C(=O)OCC(=O)N2C(C)CCCC2C)c(=O)c2ccc(C)nc21 (configuration not stated) | inconclusive: 3.7 µM [inhibitor, partial curve, poor fit]
8 | COC(=O)c1cccc(C23CC4(C2)[C@H](CN(Cc2ccc(C(F)(F)F)cc2)[C@@H]4c2ccccc2)C3c2ccc(C(F)(F)F)cc2)c1 (some centres not stated) | inconclusive: 0.329 µM [inhibitor, partial curve, poor fit]
9 | CN(Cc1nc(-c2cccs2)no1)CC1COCCO1 (configuration not stated) | inconclusive: 18.5 µM [inhibitor, single point]
10 | CCOC(=O)N1CCN(Cc2nc(-c3cccs3)no2)CC1 | inconclusive: 18.5 µM [inhibitor, single point]
11 | COc1ccc(OCCNC(=O)/C=C/c2ccccc2)cc1 | inconclusive: 9.28 µM [inhibitor, partial curve, poor fit]
12 | CC(C)(C)c1ccc(OCC(=O)Nc2ccc3c4c(cccc24)C(=O)NC3=O)cc1 | inconclusive: 18.5 µM [inhibitor, single point]
13 | Cc1nc(N2CCOCC2)c2c(C)c(C(=O)Nc3ccccc3Cl)sc2n1 | inconclusive: 11.7 µM [inhibitor, partial curve, poor fit]
14 | Cc1cccc(-n2c3nc(=O)[nH]c(=O)c-3cc3c(C)nn(-c4ccccc4)c32)c1C | inconclusive: 4.15 µM [inhibitor, partial curve, poor fit]
15 | CCOC(=O)C(=NC1CCCCC1)NNc1cccc(C(F)(F)F)c1 | inconclusive: 18.5 µM [inhibitor, single point]
16 | O=C(NCc1ccc(F)cc1)c1cc2sccc2n1Cc1ccc(F)cc1 | active: 10.4 µM
17 | CCN1CCN(CCCNC(=O)C2CCCN(c3nc4c(C)cc(C)cc4s3)C2)CC1 (configuration not stated) | inconclusive: 10.4 µM [inhibitor, partial curve, poor fit]

Four entries out of the list, arranged by SMILES length, low to high.
Row | SMILES | Potency
3 | CCOC(=O)CSc1nc(C)c2cccc(C)c2n1 | inactive
9 | CN(Cc1nc(-c2cccs2)no1)CC1COCCO1 (configuration not stated) | inconclusive: 18.5 µM [inhibitor, single point]
10 | CCOC(=O)N1CCN(Cc2nc(-c3cccs3)no2)CC1 | inconclusive: 18.5 µM [inhibitor, single point]
6 | COc1ccc(NC(=O)/C=C/c2cccc(C(F)(F)F)c2)cn1 | inconclusive: 13.1 µM [inhibitor, single point]
